No constants are given. Whether binding was seen depends on the method and setting. In cells and extracts the contact can be indirect. These calls come from enrichment with a bait or labelling near it, and not all partners need be listed.
Biological target: wildtype full-length Yca1-RFP (S. cerevisiae)
Test: affinity purification with mass spectrometry; anti-RFP magnetic beads on lysate of ∆yca1 cells expressing Yca1-RFP (FL), overnight at 4 °C, buffer A (20 mM HEPES-NaOH pH 7.4, 2 mM MgCl2, 300 mM NaCl, 0.1% Tween-20); LC-MS/MS; three independent experiments

binding: binds
B1: Ser/Thr kinase Ypk1 (enzyme, UniProt P12688 1-680)
chain: MYSWKSKFKFGKSKEEKEAKHSGFFHSSKKEEQQNNQATAGEHDASITRSSLDRKGTINPSNSSVVPVRVSYDASSSTSTVRDSNGGNSENTNSSQNLDETANIGSTGTPNDATSSSGMMTIKVYNGDDFILPFPITSSEQILNKLLASGVPPPHKEISKEVDALIAQLSRVQIKNQGPADEDLISSESAAKFIPSTIMLPGSSTLNPLLYFTIEFDNTVATIEAEYGTIAKPGFNKISTFDVTRKLPYLKIDVFARIPSILLPSKTWQQEMGLQDEKLQTIFDKINSNQDIHLDSFHLPINLSFDSAASIRLYNHHWITLDNGLGKINISIDYKPSRNKPLSIDDFDLLKVIGKGSFGKVMQVRKKDTQKVYALKAIRKSYIVSKSEVTHTLAERTVLARVDCPFIVPLKFSFQSPEKLYFVLAFINGGELFYHLQKEGRFDLSRARFYTAELLCALDNLHKLDVVYRDLKPENILLDYQGHIALCDFGLCKLNMKDDDKTDTFCGTPEYLAPELLLGLGYTKAVDWWTLGVLLYEMLTGLPPYYDEDVPKMYKKILQEPLVFPDGFDRDAKDLLIGLLSRDPTRRLGYNGADEIRNHPFFSQLSWKRLLMKGYIPPYKPAVSNSMDTSNFDEEFTREKPIDSVVDEYLSESVQKQFGGWTYVGNEQLGSSMVQGRSIR

Source: PMC6341073
